Values from PubChem BioAssay AID504791 (Drosophila RNAi Screening Center, 2011)
Test: 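Genes whose knock-down strengthens or weakens small-RNA reporter silencing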 (primary screen). Cells: Drosophila S2-derived reporter cells. Knock-down reagent: long dsRNA against Drosophila genes, about 150-250 ng dsRNA per well (siRNA assay); about 80-120 ng (miRNA assay). Duration: about 5 days (siRNA assay); about 4 days (miRNA assay). Challenge: copper sulfate induction of reporters: 25 µM (siRNA assay); 200 mM stated (miRNA assay), 1-2 days before reading. Detection: 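Dual luciferase assay: Renilla to firefly signal ratio in each well, scaled to the mean ratio of its plate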. Units: stable assay Renilla, run 1 in luminescence; stable assay firefly, run 1 in luminescence. Hit rule: 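First-pass picks had plate-scaled ratios over 1.5 for the siRNA assay, over 1.6 for the miRNA assay, or under 0.6; two distinct dsRNAs had to score alike on retest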.
The screen tested about 23,000 reagents; this is a random part of those that have a named target and a result. Over the whole deposit, 199 (0.86%) were called active. 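Plate-scaled ratios behind the calls are not deposited; printed light signals are raw; many rows marked increased or decreased are still called inactive.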 Not given: the direction of the score.

CG4230 [SID104182532] showed stable assay Renilla, run 1 = 8114; stable assay firefly, run 1 = 1.75e5; inactive.
CG11052 [SID104194080] scored stable assay Renilla, run 1 = 6743; stable assay firefly, run 1 = 4.86e5; inactive.
Depletion of grk [SID104183332] came out at: stable assay Renilla, run 1 = 33231; stable assay firefly, run 1 = 6.88e5; inactive.
Against CG14440 [SID104197725] the deposit lists stable assay Renilla, run 1 = 4067; stable assay firefly, run 1 = 1.93e5; inactive.
For CG14440 [SID104202365] the deposit lists stable assay Renilla, run 1 = 4248; stable assay firefly, run 1 = 3.49e5; inactive.
With knock-down of CG14440 [SID104202366], the screen gave stable assay Renilla, run 1 = 3051; stable assay firefly, run 1 = 2.83e5; inactive.
After knock-down of Lap1 [SID104187246], the screen gave stable assay Renilla, run 1 = 6066; stable assay firefly, run 1 = 2.92e5; inactive.
With knock-down of CG12499 [SID104194313], the record shows stable assay Renilla, run 1 = 8523; stable assay firefly, run 1 = 4.45e5; inactive.

Part of the list above, reformatted:
Gene,PubChem SID,"stable assay Renilla, run 1","stable assay firefly, run 1",call
CG4230,SID104182532,8114,1.75e5,inactive
CG11052,SID104194080,6743,4.86e5,inactive

Further reagents:
Ank [SID104196919] showed stable assay Renilla, run 1 = 10357; stable assay firefly, run 1 = 7.39e5; inactive.
Reck [SID104190296] showed stable assay Renilla, run 1 = 8306; stable assay firefly, run 1 = 3.09e5; inactive.
After knock-down of Reck [SID104190297] the results were stable assay Renilla, run 1 = 8495; stable assay firefly, run 1 = 4.86e5; inactive.
Against Ir51a [SID104186048], the entry reads stable assay Renilla, run 1 = 7815; stable assay firefly, run 1 = 4.41e5; inactive.
